# Results published in PMC11024185.
# Chains of the proteins cited; added tags and fusions are not shown.
# UniProt Q03532: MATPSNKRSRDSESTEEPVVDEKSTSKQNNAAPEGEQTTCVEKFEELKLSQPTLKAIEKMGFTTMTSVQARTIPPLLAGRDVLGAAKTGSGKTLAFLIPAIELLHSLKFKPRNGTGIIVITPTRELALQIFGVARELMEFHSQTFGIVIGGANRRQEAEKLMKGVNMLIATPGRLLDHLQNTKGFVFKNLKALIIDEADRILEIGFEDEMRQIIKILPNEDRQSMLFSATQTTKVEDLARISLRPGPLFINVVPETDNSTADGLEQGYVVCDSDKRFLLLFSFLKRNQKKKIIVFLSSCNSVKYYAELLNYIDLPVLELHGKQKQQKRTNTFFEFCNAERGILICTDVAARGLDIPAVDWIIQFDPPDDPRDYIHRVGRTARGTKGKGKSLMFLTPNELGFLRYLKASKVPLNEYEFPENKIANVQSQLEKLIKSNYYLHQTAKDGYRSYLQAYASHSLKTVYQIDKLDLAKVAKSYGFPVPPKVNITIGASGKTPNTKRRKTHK
# UniProt P40007: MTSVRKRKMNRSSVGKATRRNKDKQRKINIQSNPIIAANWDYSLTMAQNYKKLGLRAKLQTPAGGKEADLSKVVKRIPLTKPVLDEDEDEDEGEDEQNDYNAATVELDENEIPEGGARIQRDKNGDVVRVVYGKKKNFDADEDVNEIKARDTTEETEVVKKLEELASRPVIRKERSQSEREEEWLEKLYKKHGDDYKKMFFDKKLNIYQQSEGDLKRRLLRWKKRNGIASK
# UniProt Q06205: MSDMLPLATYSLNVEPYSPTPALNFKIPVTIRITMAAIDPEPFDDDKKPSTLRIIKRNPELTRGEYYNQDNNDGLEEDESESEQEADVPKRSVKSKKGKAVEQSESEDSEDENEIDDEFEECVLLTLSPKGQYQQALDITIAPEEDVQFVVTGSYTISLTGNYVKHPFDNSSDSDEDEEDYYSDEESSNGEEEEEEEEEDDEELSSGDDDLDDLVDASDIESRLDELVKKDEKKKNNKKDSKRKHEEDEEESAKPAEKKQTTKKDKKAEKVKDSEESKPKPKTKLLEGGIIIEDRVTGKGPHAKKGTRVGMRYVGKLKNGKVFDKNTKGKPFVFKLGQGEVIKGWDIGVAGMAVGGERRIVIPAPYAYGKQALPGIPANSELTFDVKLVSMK
# UniProt P14126: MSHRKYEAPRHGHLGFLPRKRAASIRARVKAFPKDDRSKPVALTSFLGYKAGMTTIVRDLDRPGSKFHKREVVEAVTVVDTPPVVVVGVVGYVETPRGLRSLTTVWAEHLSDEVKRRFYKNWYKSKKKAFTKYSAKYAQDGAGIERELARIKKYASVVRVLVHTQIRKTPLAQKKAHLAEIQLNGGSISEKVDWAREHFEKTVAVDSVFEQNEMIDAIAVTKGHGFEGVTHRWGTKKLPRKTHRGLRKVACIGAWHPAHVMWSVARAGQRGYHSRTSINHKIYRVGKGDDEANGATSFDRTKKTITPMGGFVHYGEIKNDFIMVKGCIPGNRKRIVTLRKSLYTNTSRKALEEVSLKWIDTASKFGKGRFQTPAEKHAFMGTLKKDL
# T1: Drs1 R569Q (3x-Strep-Drs1 R569Q) (S. cerevisiae) (UniProt P32892)
# T1 sequence: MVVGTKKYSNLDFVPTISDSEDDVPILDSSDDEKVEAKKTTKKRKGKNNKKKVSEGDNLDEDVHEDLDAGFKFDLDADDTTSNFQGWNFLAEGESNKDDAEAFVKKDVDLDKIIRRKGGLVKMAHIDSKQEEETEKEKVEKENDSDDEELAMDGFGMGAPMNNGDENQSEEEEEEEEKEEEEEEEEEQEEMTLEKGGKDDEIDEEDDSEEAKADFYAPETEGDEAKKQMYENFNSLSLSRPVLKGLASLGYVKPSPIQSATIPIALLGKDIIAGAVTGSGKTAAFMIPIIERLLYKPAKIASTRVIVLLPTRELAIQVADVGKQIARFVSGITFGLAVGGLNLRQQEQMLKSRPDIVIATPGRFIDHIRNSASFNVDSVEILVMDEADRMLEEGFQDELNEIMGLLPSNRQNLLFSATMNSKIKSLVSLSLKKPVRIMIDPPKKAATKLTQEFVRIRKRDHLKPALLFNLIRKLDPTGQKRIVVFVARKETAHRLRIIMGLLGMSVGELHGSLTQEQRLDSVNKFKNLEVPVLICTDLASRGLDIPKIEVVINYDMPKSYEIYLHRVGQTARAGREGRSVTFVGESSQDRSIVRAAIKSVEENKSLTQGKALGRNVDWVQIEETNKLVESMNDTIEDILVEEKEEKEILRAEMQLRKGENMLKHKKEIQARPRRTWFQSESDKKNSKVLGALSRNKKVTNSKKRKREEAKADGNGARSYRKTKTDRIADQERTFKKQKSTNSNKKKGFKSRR
# T2: Ssf1-3xFLAG-3C-2xProteinA (S. cerevisiae) (UniProt P38789)
# T2 sequence: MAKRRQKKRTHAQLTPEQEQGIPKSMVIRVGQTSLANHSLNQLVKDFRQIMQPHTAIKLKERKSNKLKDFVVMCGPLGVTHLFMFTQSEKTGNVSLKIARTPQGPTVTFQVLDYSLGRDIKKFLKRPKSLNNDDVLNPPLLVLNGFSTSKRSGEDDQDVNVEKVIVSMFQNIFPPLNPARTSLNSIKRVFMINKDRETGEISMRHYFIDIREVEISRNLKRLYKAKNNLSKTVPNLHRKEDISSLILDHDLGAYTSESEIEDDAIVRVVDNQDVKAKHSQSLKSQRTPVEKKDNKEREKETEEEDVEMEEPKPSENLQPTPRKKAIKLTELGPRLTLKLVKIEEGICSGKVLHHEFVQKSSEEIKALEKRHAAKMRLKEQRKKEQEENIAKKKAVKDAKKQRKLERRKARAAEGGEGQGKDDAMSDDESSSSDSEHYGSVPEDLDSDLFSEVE
# T3: Dbp10 R522V (sfGFP-3xSTREP-bdNEDD8-MYC-dbp10 R522V) (S. cerevisiae) (UniProt Q12389)
# T3 sequence: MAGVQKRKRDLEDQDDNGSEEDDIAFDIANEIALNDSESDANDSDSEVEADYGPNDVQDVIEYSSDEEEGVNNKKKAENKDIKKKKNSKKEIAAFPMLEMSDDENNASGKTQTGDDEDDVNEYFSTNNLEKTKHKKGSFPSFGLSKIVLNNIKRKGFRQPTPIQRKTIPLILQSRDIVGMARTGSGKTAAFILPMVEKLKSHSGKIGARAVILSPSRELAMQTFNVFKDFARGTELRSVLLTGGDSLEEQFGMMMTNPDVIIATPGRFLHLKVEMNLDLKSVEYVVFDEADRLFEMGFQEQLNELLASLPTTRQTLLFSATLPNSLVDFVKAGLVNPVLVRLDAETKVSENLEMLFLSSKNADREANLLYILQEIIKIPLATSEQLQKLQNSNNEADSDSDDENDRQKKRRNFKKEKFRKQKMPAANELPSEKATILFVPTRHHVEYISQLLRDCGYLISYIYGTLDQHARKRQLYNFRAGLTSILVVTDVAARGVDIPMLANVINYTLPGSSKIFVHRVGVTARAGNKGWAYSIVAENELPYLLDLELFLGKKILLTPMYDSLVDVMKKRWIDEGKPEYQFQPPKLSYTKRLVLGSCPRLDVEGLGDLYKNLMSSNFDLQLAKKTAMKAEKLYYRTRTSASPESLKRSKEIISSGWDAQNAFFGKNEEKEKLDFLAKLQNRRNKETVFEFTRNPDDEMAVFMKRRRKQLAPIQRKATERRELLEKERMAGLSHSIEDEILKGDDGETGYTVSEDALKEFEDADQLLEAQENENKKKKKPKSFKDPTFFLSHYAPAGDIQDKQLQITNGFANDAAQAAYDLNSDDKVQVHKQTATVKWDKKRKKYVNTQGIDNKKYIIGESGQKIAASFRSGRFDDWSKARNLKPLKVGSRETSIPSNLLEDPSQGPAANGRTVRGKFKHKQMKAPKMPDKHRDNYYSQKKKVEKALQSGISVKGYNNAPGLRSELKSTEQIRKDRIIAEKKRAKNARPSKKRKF
# Legend:
# [1] = molecular target: T1, Drs1 R569Q (3x-Strep-Drs1 R569Q) (S. cerevisiae); assay: affinity purification with mass spectrometry; purification of pre-60S intermediates from a drs1 R569Q strain by tags on Drs1 R569Q (3x-Strep) and Ssf1 (2x-ProtA); Coomassie-stained 4-20% SDS-PAGE
# [2] = molecular target: T2, Ssf1-3xFLAG-3C-2xProteinA (S. cerevisiae); assay: as above
# [3] = molecular target: T3, Dbp10 R522V (sfGFP-3xSTREP-bdNEDD8-MYC-dbp10 R522V) (S. cerevisiae); assay: affinity purification with mass spectrometry; split-tag purification of pre-60S particles from yeast overexpressing dbp10 R522V (β-estradiol, 1 h): IgG Sepharose on Ssf1-2xProteinA, 3C cleavage, then Strep-Tactin on Dbp10 R522V, bdNEDD8 protease elution; 50 mM Bis-Tris-Propane pH 8.0, 125 mM NaCl, 25 mM KCl, 10 mM MgCl2; Coomassie-stained 4-20% SDS-PAGE, bands named by molecular weight, ambiguous bands by mass spectrometry
# [4] = molecular target: T2, Ssf1-3xFLAG-3C-2xProteinA (S. cerevisiae); assay: as above
binding [1],binding [2],binding [3],binding [4],Molecule
binds,binds,binds,binds,Has1 (from UniProt Q03532 1-505) (enzyme)
binds,binds,binds,binds,uL4 (S. cerevisiae (endogenous in yeast))
binds,binds,binds,binds,Nop16 (from UniProt P40007 1-231)
binds,binds,binds,binds,Fpr4 (from UniProt Q06205 1-392)
binds,binds,binds,binds,uL3 (from UniProt P14126 1-387)
binds,binds,binds,binds,"Ytm1 (protein, UniProt Q12024 1-460) MTEDKSQVKIRFFTREKDELLHVQDTPMYAPISLKRYGLSEIVNHLLGSEKPVPFDFLIEGELLRTSLHDYLTKKGLSSEASLNVEYTRAILPPSYLNSFSNEDWVSSLDVGDGSKHIISGSYDGIVRTWDLSGNVQKQYSGHSGPIRAVKYISNTRLVSAGNDRTLRLWKTKNDDLKLTSQQQAQEDDDDEVNIEDGKTLAILEGHKAPVVSIDVSDNSRILSASYDNSIGFWSTIYKEMTVVDPLEDINNPNNKISTAARKRRKLTMKDGTIRRRAPLSLLESHTAPVEQVIFDSTDNTVGYSVSQDHTIKTWDLVTARCIDTRTTSYSLLSIAQLSTLNLLACGSSARHITLHDPRVGASSKVTQQQLIGHKNFVSSLDTCPENEYILCSGSHDGTVKVWDVRSTSPMYTITREDKSVQKGVNDKVFAVKWAEKVGIISAGQDKKIQINKGDNIFKN"
–,binds,binds,binds,"Erb1 (protein, UniProt Q04660 1-807) MMAKNNKTTEAKMSKKRAASEESDVEEDEDKLLSVDGLIDAEASESDEDDDEYESAVEEKESSSDKEAQDDSDDDSDAELNKLLAEEEGDGEEDYDSSEFSDDTTSLTDRLSGVKLQTIVDPNIYSKYADGSDRIIKPEINPVYDSDDSDAETQNTIGNIPLSAYDEMPHIGYDINGKRIMRPAKGSALDQLLDSIELPEGWTGLLDKNSGSSLNLTKEELELISKIQRNEQTDDSINPYEPLIDWFTRHEEVMPLTAVPEPKRRFVPSKNEAKRVMKIVRAIREGRIIPPKKLKEMKEKEKIENYQYDLWGDSTETNDHVMHLRAPKLPPPTNEESYNPPEEYLLSPEEKEAWENTEYSERERNFIPQKYSALRKVPGYGESIRERFERSLDLYLAPRVRKNKLNIDPNSLIPELPSPKDLRPFPIRCSTIYAGHKGKVRTLSIDPSGLWLATGSDDGTVRVWEILTGREVYRTTLIDDEENPDYHIECIEWNPDANNGILAVAVGENIHLIVPPIFGYDIENNGKTKIEDGFGYDTFGTVKKSNLEVNENGDGDEDGENESAKNAVKKQVAQWNKPSQKQLEKDICITISCKKTVKKLSWHRKGDYFVTVQPDSGNTSVLIHQVSKHLTQSPFKKSKGIIMDAKFHPFKPQLFVCSQRYVRIYDLSQQILVKKLLPGARWLSKIDIHPRGDNLIASSFDKRVLWHDLDLASTPYKTLRYHEKAVRSVNFHKKLPLFSSAADDGTIHVFHATVYDDMMKNPMIVPLKKLTGHKVINSLGVLDAIWHPREAWLFSAGADNTARLWTT"
binds,binds,binds,binds,"Mak16 (protein, UniProt P10962 1-306) MSDEIVWQVINQSFCSHRIKAPNGQNFCRNEYNVTGLCTRQSCPLANSKYATVKCDNGKLYLYMKTPERAHTPAKLWERIKLSKNYTKALQQIDEHLLHWSKFFRHKCKQRFTKLTQVMITERRLALREEERHYVGVAPKVKRREQNRERKALVAAKIEKAIEKELMDRLKSGAYGDKPLNVDEKVWKKIMGQMEEENSQDEEEDWDEEEESDDGEVEYVADDGEGEYVDVDDLEKWLADSDREASSASESESDSESESDSDSDEENKNSAKRRKKGTSAKTKRPKVEIEYEEEHEVQNAEQEVAQ"
binds,binds,binds,binds,"Rpf2 (protein, UniProt P36160 1-344) MIRTVKPKNARAKRALVKREAKLVENVKQALFIPGQSCNKNLHDIMVDLSALKKPDMKRFNRKNDIHPFEDMSPLEFFSEKNDCSLMVLMTSSKKRKNNMTFIRTFGYKIYDMIELMVADNFKLLSDFKKLTFTVGLKPMFTFQGAAFDTHPVYKQIKSLFLDFFRGESTDLQDVAGLQHVISMTIQGDFQDGEPLPNVLFRVYKLKSYKSDQGGKRLPRIELVEIGPRLDFKIGRIHTPSPDMVTEAHKKPKQLEMKTKKNVELDIMGDKLGRIHMGKQDLGKLQTRKMKGLKSKFDQGTEEGDGEVDEDYEDEASYSDDGQEYEEEFVSATDIEPSAKRQKK"
–,binds,binds,binds,"Nop7 (protein, UniProt P53261 1-605) MRIKKKNTRGNARNFITRSQAVRKLQVSLADFRRLCIFKGIYPREPRNKKKANKGSTAPTTFYYAKDIQYLMHEPVLAKFREHKTFARKLTRALGRGEVSSAKRLEENRDSYTLDHIIKERYPSFPDAIRDIDDALNMLFLFSNLPSTNQVSSKIINDAQKICNQWLAYVAKERLVRKVFVSIKGVYYQANIKGEEVRWLVPFKFPENIPSDVDFRIMLTFLEFYSTLLHFVLYKLYTDSGLIYPPKLDLKKDKIISGLSSYILESRQEDSLLKLDPTEIEEDVKVESLDASTLKSALNADEANTDETEKEEEQEKKQEKEQEKEQNEETELDTFEDNNKNKGDILIQPSKYDSPVASLFSAFVFYVSREVPIDILEFLILSCGGNVISEAAMDQIENKKDIDMSKVTHQIVDRPVLKNKVAGRTYIQPQWIFDCINKGELVPANKYLPGEALPPHLSPWGDAIGYDPTAPVEEGEEEESESESESEDQVEEEDQEVVAGEEDDDDDEELQAQKELELEAQGIKYSETSEADKDVNKSKNKKRKVDEEEEEKKLKMIMMSNKQKKLYKKMKYSNAKKEEQAENLKKKKKQIAKQKAKLNKLDSKK"

# Results are given in words; binding and its absence hold for the method and conditions named. Binding seen in cells or lysates may run through a third protein. These calls come from enrichment with a bait or labelling near it, and not all partners need be listed. For some assays here: Tags and fused reporters may be left off the sequences shown.
